Experimental findings from PMC11705634 are described below.

Sequences of proteins named here, by UniProt entry; tags and fusion partners are left off.
UniProt Q969H0: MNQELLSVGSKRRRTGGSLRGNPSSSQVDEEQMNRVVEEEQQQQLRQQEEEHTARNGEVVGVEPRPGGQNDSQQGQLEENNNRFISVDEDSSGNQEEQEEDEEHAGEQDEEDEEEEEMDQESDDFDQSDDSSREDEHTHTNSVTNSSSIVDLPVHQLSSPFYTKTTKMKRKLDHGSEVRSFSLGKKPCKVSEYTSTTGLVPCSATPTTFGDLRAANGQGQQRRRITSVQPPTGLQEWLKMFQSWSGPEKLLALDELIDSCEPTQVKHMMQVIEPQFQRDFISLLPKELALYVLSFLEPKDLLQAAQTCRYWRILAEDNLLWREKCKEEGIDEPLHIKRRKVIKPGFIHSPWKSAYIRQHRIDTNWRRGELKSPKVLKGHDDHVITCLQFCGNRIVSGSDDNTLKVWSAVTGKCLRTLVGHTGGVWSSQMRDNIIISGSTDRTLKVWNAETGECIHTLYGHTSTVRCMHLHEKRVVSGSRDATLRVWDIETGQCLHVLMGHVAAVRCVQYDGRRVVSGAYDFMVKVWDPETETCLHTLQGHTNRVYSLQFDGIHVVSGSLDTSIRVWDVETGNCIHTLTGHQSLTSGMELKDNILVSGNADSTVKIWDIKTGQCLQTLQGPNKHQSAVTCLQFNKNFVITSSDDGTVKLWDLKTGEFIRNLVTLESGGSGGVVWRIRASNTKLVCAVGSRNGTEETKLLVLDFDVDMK
UniProt P53396: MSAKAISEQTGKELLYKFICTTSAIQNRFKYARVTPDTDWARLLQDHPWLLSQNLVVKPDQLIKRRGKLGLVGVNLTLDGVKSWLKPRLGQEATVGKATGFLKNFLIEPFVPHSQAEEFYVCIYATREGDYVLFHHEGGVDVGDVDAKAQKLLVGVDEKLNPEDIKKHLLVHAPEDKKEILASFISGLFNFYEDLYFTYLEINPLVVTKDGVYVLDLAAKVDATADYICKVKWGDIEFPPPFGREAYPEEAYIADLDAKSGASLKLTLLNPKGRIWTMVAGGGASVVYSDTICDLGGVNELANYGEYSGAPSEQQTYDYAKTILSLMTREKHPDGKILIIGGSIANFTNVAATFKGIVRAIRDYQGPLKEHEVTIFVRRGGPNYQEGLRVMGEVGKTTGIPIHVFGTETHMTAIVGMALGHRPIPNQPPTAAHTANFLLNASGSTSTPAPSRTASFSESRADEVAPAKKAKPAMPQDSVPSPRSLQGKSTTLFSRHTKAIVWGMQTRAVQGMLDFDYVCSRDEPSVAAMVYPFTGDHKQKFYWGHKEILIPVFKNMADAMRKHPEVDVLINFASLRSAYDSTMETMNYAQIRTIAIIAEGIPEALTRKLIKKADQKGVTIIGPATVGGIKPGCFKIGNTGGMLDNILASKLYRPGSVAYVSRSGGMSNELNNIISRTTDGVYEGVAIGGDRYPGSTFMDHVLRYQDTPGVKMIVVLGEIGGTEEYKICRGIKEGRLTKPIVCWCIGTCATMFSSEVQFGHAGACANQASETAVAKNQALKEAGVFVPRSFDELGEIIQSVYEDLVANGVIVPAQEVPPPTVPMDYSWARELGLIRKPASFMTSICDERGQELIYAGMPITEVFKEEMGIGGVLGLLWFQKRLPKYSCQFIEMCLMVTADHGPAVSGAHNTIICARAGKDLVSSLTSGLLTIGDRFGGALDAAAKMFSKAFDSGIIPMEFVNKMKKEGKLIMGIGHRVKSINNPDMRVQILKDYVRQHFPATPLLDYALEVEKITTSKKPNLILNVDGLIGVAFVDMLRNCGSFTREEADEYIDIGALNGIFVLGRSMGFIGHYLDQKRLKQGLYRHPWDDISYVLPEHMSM

These are yes or no findings as the source states them, for the method shown. Binding seen in cells or lysates may run through a third protein. Some binding calls cover weakened binding; strength is not graded here.

This assay has as its target FLAG-FBXW7 (F-Box/WD Repeat-Containing Protein 7) (UniProt Q969H0). Kind of assay: co-IP; 293-T cells transfected 48 h with FLAG-FBXW7 / MYC-ACLY plasmids; RIPA lysate; overnight at 4°C with IgG or FLAG or MYC antibody, Protein A/G magnetic beads; Western blot.

“MYC-ACLY (ATP Citrate Lyase) (from UniProt P53396 1-1101)”: the binding entry is on record as “binds”.
